## Percent effect of library compounds

The chains behind the UniProt entries cited, without tags or fusion partners. Residues count along the entry.
UniProt Q4DA54, 1-478: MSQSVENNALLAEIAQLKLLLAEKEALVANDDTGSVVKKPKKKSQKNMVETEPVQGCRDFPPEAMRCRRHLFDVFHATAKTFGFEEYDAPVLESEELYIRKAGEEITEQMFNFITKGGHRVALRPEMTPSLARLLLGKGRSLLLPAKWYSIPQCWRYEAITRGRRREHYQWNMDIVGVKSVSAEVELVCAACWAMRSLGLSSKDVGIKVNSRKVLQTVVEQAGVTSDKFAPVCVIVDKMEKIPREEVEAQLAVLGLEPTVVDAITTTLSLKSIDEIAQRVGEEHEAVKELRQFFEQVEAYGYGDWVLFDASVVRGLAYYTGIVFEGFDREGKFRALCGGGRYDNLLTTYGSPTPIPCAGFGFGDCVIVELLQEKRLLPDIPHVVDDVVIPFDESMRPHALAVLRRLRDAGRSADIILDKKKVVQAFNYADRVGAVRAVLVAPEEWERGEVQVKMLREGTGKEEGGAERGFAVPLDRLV
UniProt A4I591, 1-473: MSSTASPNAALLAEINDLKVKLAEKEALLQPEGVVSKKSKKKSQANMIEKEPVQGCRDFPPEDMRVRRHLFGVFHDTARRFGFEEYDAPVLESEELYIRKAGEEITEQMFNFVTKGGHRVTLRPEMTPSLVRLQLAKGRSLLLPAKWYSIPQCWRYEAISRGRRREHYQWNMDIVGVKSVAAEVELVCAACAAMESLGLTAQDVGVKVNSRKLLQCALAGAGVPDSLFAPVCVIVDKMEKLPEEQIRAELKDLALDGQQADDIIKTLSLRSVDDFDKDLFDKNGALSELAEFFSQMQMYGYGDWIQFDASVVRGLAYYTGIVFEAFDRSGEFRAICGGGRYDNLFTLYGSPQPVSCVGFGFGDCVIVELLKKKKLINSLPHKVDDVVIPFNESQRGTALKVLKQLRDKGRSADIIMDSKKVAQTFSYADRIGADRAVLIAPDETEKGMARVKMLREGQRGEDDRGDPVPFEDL

Data taken from ChEMBL document CHEMBL3988442, “University of Dundee, Small-Polar-MMV Screening Library” (2021).

Toxoplasma: 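Assay of Toxoplasma gondii numbers, read through their beta-galactosidase reporter with a colour substrate. Compounds at 10 µM. Higher reads as fewer parasites (inferred from which compounds were picked for retests). Of about 67,000 compounds tested this way, about 260 (0.38%) reached 50% or more in at least one test.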
TcHisRS: 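Histidine-tRNA ligase, Trypanosoma cruzi CL Brener (UniProt Q4DA54). Enzyme assay of histidyl-tRNA synthetase; the read-out is not stated. Concentration: 30 µM. The record gives no direction; compounds that gave an IC50 in retests scored well above the rest, so higher reads as stronger inhibition. Of about 69,000 compounds tested this way, about 31 (0.045%) reached 50% or more in at least one test.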
LiHisRS: 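Histidine-tRNA ligase, Leishmania infantum (UniProt A4I591). Enzyme assay of histidyl-tRNA synthetase; the read-out is not stated. Compounds at 30 µM. The record gives no direction; compounds that gave an IC50 in retests scored well above the rest, so higher reads as stronger inhibition. The assay is labelled LdHisRS but filed under L. infantum. About 69,000 compounds were tested under these conditions; 0.6% (about 410) showed 50% or more at least once.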
T. brucei: 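Whole-parasite assay of Trypanosoma brucei over 72 hours; the read-out is not stated. Tested at 30 µM. The record gives no direction; compounds that gave an IC50 in retests scored well above the rest, so higher reads as stronger inhibition. Values scatter widely below zero; nearly all retest evidence comes from the higher of the two concentrations used. Size under these conditions: about 64,000 compounds, about 940 of them at 50% or above in at least one test.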

Values are the deposited “Percent Effect”, in %. How 0% and 100% were set is not recorded. Most values in the screen are low, and negative values occur. This is an unselected part of the compounds tested. A dash means the value is not listed here; it may have been measured.

compound,Toxoplasma,TcHisRS,LiHisRS,T. brucei
Cc1ncc2c(n1)CN(CC(=O)N1CCc3sccc3C1)CC2,-37,20.62,27.42,-54.61
Cc1ccc(-n2ccnc2-c2cn(C3CCNCC3)nn2)c(Cl)c1,-5.473,1.754,11.29,-40.54
Cc1cnn(CC2CCCN2C(=O)c2ccc(Cl)cc2F)c1 (centres unmarked),4.374,3.134,5.128,-
CC(NCc1cnc(C2CCC2)s1)c1cccc(-n2cccn2)c1 (centres unmarked),15.57,-1.587,11.76,-15.2
O=C(NC1CCN(c2cc(-n3ccnc3)ncn2)CC1)c1ccncc1,-3.471,4.545,3.226,5.617
CCN(Cc1cnn(C)c1)S(=O)(=O)c1ccc(NC(C)=O)cc1,14.82,-4.082,11.29,-45.49
O=C([C@@H]1CC[C@@H]2[C@@H](CCN2c2ccncn2)O1)N1CCCCO1,-,4.444,20.75,-
Cc1cc(C(=O)N2CC(=O)Nc3cnccc32)c(Cl)cc1F,-20.25,2.062,4.839,-32.25
CCNC(=O)C(C)NC(=O)Nc1ccccc1SC(F)(F)F (centres unmarked),5.876,-2.353,10.32,-94.25
CCN(CC)C(=O)c1cc(C2(C)CCN(C(C)=O)CC2)nc(C)n1,9.618,8.046,5.755,-6.605
Cc1ccc(Cl)c(C(C(=O)O)N(C)Cc2cnn(C)c2)c1 (centres unmarked),-11.06,7.317,13.56,-9.181
COCCCNC(=O)Nc1cccc(Cl)c1-n1cccn1,4.772,3.982,20.35,-10.99
Cn1nc(Br)c2c(NCCSCCCO)ncnc21,-27.64,2.484,25,4.598
O=c1oc2ccccc2n1CCN(CC1CCOC1)C1CC1 (centres unmarked),4.37,6.383,4.286,-11.01
Clc1nc2ccccn2c1CNCC1CN(C2CC2)CCO1 (centres unmarked),17.96,9.135,14.63,-20.54
CC(C)(C)c1ccc(OCc2nc3c(c(=O)[nH]2)CCNC3)cc1,-6.168,15.38,28.57,12.52
Cn1ccnc1CN1CCN(Cc2noc(C3CC3)n2)CC1,17.83,5.714,16.95,-
Cc1nc(CN2CCCN(C(=O)COCC3CC3)CC2)cs1,1.908,3.333,24.53,15.24
CS(=O)(=O)N1Cc2ccccc2CC2(CCN(Cc3ccncc3)C2)C1 (centres unmarked),-3.326,13.61,9.655,-
[H][C@@]12CCN(C[C@@H]1C(=O)N1CCOCC1)[C@@H](Cn1cc(COC)nn1)C2,-8.176,-,-,-8.977
Cc1ccccc1CN1CC[C@H](c2nnc(-c3cncn3C)o2)C1,5.974,-1.493,18.92,7.714
O=C(O)C(F)(F)F.[H][C@]12CCCN(CC3CCOCC3)[C@@]1([H])CN(C(=O)c1ccco1)C2,-21.03,-,-,-3.407
Cc1cccc(-c2nc(CN3CC(n4nc(C)cc4C)C3)no2)c1,10.77,3.139,10.59,-18.08
COc1ccc(CC(=O)N2C[C@@H]3COC[C@]3(CN(C)C)C2)cc1,-,-30.05,-47.06,-
CCS(=O)(=O)N1CC[C@H]2[C@H]1CC(=O)N2Cc1csc(C)n1,-,10.05,24.47,-
COC(=O)[C@H]1CN(C(=O)c2cscn2)C[C@@H]1c1ccc(F)cc1,22.55,9.125,8.966,-45.57
O=C(O)C(F)(F)F.O=C(O)C(F)(F)F.[H][C@]12C[C@@H](Cn3cncn3)N(C)[C@@]1([H])CCN(Cc1ccsc1)C2,0.5169,-,-,-14.66
CC(C)c1nc2cc(NC(=O)Cn3ccc(=O)[nH]c3=O)ccc2o1,-15.07,8.434,14,-28.87
CC(C)c1nnc(N2C[C@@H]3CC[C@H](C2)N(CC2CCC2)C3)s1,-,17.82,19.05,-
CN(C)S(=O)(=O)N1CC[C@]2(O)CCN(c3nc4ccccc4s3)C[C@@H]2C1,-,12.05,16,-
O=C(NCC1CC1)[C@@H]1CCO[C@@H]2CCN(CCc3ccccc3)C[C@H]21,-,3,13.7,-
O=C(CCCN1CCCCC1)N[C@H](C(=O)O)c1cccc(F)c1F,-27.58,-1.786,14.16,-56.79
O=C(NCc1nc[nH]n1)c1cc(COc2ccccc2F)[nH]n1,4.365,3.704,15.69,-49.13
Cc1cc(C2CCCN2Cc2nnc(-c3ccco3)o2)on1 (centres unmarked),1.966,7.738,24.73,-28.24
CC(C)n1ncc2c1NC(=O)CC2c1ccccc1Cl (centres unmarked),-16.71,-1.242,22.5,-13.55
CN1CC2(CCNCC2)CC1C(=O)NCCCNc1cccnc1 (centres unmarked),1.737,5.042,8.264,-6.231
CC(C)NC(=O)C1CCC2(CCN(c3ncccn3)CC2)CO1 (centres unmarked),1.011,9.816,15.38,-66.01
Cc1ccc(Nc2nccc(C3CCN(C(=O)CO)C3)n2)nc1 (centres unmarked),8.463,11.65,9.929,-
Cc1cc(C[C@@H]2CCC[C@H]2NCc2ccccc2C)on1,-,10.99,21.74,-
Cc1cc(CN2C[C@H](N3CCOCC3)[C@@H]3OCCC[C@@H]32)oc1C,-,8.696,19.74,-
CS(=O)(=O)c1nccn1Cc1ccncc1,-16.74,7.407,15.05,-31.95
CCC(=O)N1CCN(c2nc(C)nc3c(C)nn(C)c23)CC1,56.36,2.609,10.34,-1.299
CSCC[C@@H]1CN2CCC[C@H]2CN1Cc1coc2ccc(Cl)cc2c1=O,-,10.61,14.49,-
O=C(O)C(F)(F)F.[H][C@]12CCCN(Cc3cccs3)[C@@]1([H])CN(S(C)(=O)=O)C2,2.394,-,-,-76.94
CN(Cc1ccco1)Cc1cncc2c1CCN(S(C)(=O)=O)C2.Cl.Cl,11.43,-,-,-15.84
COc1ccc(-c2cc3nc(CCNC(=O)CN(C)C)nn3cn2)cc1,1.171,2.825,9.79,-6.122
CN(CCS(=O)(=O)c1cc(Cl)ccc1Cl)CC(=O)Nc1ccc(F)cc1,-3.662,2.463,16.88,64.98
O=C(N[C@@H]1CCN(C(=O)c2cc[nH]c2)C[C@H]1O)c1ccccn1,4.357,2.235,1.042,-30.02